Experimental data as given in the supplement of paper PMC8728848.
The list shows a part of the results.

Experiments:
Experiment in all cases: glycan array binding signal (z-score within array); higher = stronger binding
Conditions in all cases: glycan notation: IUPAC condensed, linker removed
[1] = target: Neu5Ac(a2-3)Gal(b1-3)[Fuc(a1-4)]GlcNAc
How it was run: (§1)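 Arrays were curated from the Consortium for Functional Glycomics database, 3228 in total, and kept only where the protein sequence was available. Binding is expressed as a within-array Z-score. This score was averaged across arrays of the same protein sequence at different concentrations or buffers and across linkers, and negative values can be read as non-binding.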

[2] = target: Neu5Ac(a2-3)Gal(b1-3)[Fuc(a1-4)]GlcNAc(b1-3)Gal(b1-3)[Fuc(a1-4)]GlcNAc
How it was run: as §1

[3] = target: Neu5Ac(a2-3)Gal(b1-3)[Fuc(a1-4)]GlcNAc(b1-3)Gal(b1-4)[Fuc(a1-3)]GlcNAc
How it was run: as §1

[4] = target: Neu5Ac(a2-3)Gal(b1-3)[GlcNAc(b1-6)]GalNAc
How it was run: as §1

[5] = target: Neu5Ac(a2-3)Gal(b1-3)[Neu5Ac(a2-6)]GalNAc
How it was run: as §1

[6] = target: Neu5Ac(a2-3)Gal(b1-3)[Neu5Ac(a2-6)]GlcNAc(b1-3)[Fuc(a1-3)[Gal(b1-4)]GlcNAc(b1-6)]Gal(b1-4)Glc
How it was run: as §1

[7] = target: Neu5Ac(a2-3)Gal(b1-3)]Neu5Ac(a2-3)Gal(b1-4)]GlcNAc
How it was run: as §1

[8] = target: Neu5Ac(a2-3)Gal(b1-4)Glc
How it was run: as §1

[9] = target: Neu5Ac(a2-3)Gal(b1-4)GlcNAc
How it was run: as §1

[10] = target: Neu5Ac(a2-3)Gal(b1-4)GlcNAc(b1-2)Man
How it was run: as §1

[11] = target: Neu5Ac(a2-3)Gal(b1-4)GlcNAc(b1-2)Man(a1-3)[GlcNAc(b1-4)][Neu5Ac(a2-3)Gal(b1-4)GlcNAc(b1-2)Man(a1-6)]Man(b1-4)GlcNAc(b1-4)GlcNAc
How it was run: as §1

[12] = target: Neu5Ac(a2-3)Gal(b1-4)GlcNAc(b1-2)Man(a1-3)[Neu5Ac(a2-3)Gal(b1-4)GlcNAc(b1-2)Man(a1-6)]Man(b1-4)GlcNAc(b1-4)GlcNAc
How it was run: as §1

[13] = target: Neu5Ac(a2-3)Gal(b1-4)GlcNAc(b1-2)Man(a1-3)[Neu5Ac(a2-3)Gal(b1-4)GlcNAc(b1-2)Man(a1-6)]Man(b1-4)GlcNAc(b1-4)[Fuc(a1-6)]GlcNAc
How it was run: as §1

[14] = target: Neu5Ac(a2-3)Gal(b1-4)GlcNAc(b1-2)Man(a1-3)[Neu5Ac(a2-6)Gal(b1-4)GlcNAc(b1-2)Man(a1-6)]Man(b1-4)GlcNAc(b1-4)GlcNAc
How it was run: as §1

[15] = target: Neu5Ac(a2-3)Gal(b1-4)GlcNAc(b1-2)[Neu5Ac(a2-3)Gal(b1-4)GlcNAc(b1-4)]Man(a1-3)[GlcNAc(b1-4)][Neu5Ac(a2-3)Gal(b1-4)GlcNAc(b1-2)[Neu5Ac(a2-3)Gal(b1-4)GlcNAc(b1-6)]Man(a1-6)]Man(b1-4)GlcNAc(b1-4)GlcNAc
How it was run: as §1

[16] = target: Neu5Ac(a2-3)Gal(b1-4)GlcNAc(b1-2)[Neu5Ac(a2-3)Gal(b1-4)GlcNAc(b1-4)]Man(a1-3)[GlcNAc(b1-4)][Neu5Ac(a2-3)Gal(b1-4)GlcNAc(b1-4)Man(a1-6)]Man(b1-4)GlcNAc(b1-4)GlcNAc
How it was run: as §1

[17] = target: Neu5Ac(a2-3)Gal(b1-4)GlcNAc(b1-2)[Neu5Ac(a2-3)Gal(b1-4)GlcNAc(b1-6)]Man(a1-6)[Neu5Ac(a2-3)Gal(b1-4)GlcNAc(b1-2)Man(a1-3)]Man(b1-4)GlcNAc(b1-4)GlcNAc
How it was run: as §1

[18] = target: Neu5Ac(a2-3)Gal(b1-4)GlcNAc(b1-2)[Neu5Ac(a2-3)Gal(b1-4)GlcNAc(b1-6)]Man(a1-6)[Neu5Ac(a2-3)Gal(b1-4)GlcNAc(b1-2)Man(a1-3)][GlcNAc(b1-4)]Man(b1-4)GlcNAc(b1-4)GlcNAc
How it was run: as §1

[19] = target: Neu5Ac(a2-3)Gal(b1-4)GlcNAc(b1-3)Gal
How it was run: as §1

[20] = target: Neu5Ac(a2-3)Gal(b1-4)GlcNAc(b1-3)Gal(b1-3)GlcNAc
How it was run: as §1

[21] = target: Neu5Ac(a2-3)Gal(b1-4)GlcNAc(b1-3)Gal(b1-4)GlcNAc
How it was run: as §1

[22] = target: Neu5Ac(a2-3)Gal(b1-4)GlcNAc(b1-3)Gal(b1-4)GlcNAc(b1-2)Man(a1-3)[Neu5Ac(a2-3)Gal(b1-4)GlcNAc(b1-3)Gal(b1-4)GlcNAc(b1-2)Man(a1-6)]Man(b1-4)GlcNAc(b1-4)GlcNAc
How it was run: as §1

[23] = target: Neu5Ac(a2-3)Gal(b1-4)GlcNAc(b1-3)Gal(b1-4)GlcNAc(b1-3)Gal(b1-4)GlcNAc
How it was run: as §1

[24] = target: Neu5Ac(a2-3)Gal(b1-4)GlcNAc(b1-3)Gal(b1-4)GlcNAc(b1-3)Gal(b1-4)GlcNAc(b1-2)Man(a1-3)[Neu5Ac(a2-3)Gal(b1-4)GlcNAc(b1-3)Gal(b1-4)GlcNAc(b1-3)Gal(b1-4)GlcNAc(b1-2)Man(a1-6)]GalNAc
How it was run: as §1

[25] = target: Neu5Ac(a2-3)Gal(b1-4)GlcNAc(b1-3)Gal(b1-4)GlcNAc(b1-3)GalNAc
How it was run: as §1

[26] = target: Neu5Ac(a2-3)Gal(b1-4)GlcNAc(b1-3)Gal(b1-4)GlcNAc(b1-3)[Neu5Ac(a2-3)Gal(b1-4)GlcNAc(b1-3)Gal(b1-4)GlcNAc(b1-6)]GalNAc
How it was run: as §1

[27] = target: Neu5Ac(a2-3)Gal(b1-4)GlcNAc(b1-3)Gal(b1-4)GlcNAc(b1-6)[Gal(b1-3)]GalNAc
How it was run: as §1

[28] = target: Neu5Ac(a2-3)Gal(b1-4)GlcNAc(b1-3)Gal(b1-4)[Fuc(a1-3)]GlcNAc
How it was run: as §1

[29] = target: Neu5Ac(a2-3)Gal(b1-4)GlcNAc(b1-3)GalNAc
How it was run: as §1

[30] = target: Neu5Ac(a2-3)Gal(b1-4)GlcNAc(b1-3)[Neu5Ac(a2-3)Gal(b1-4)GlcNAc(b1-6)]GalNAc
How it was run: as §1

[31] = target: Neu5Ac(a2-3)Gal(b1-4)GlcNAc(b1-6)GalNAc
How it was run: as §1

[32] = target: Neu5Ac(a2-3)Gal(b1-4)GlcNAc(b1-6)[Gal(b1-3)]GalNAc
How it was run: as §1

[33] = target: Neu5Ac(a2-3)Gal(b1-4)GlcNAc(b1-6)[Neu5Ac(a2-3)Gal(b1-3)]GalNAc
How it was run: as §1

[34] = target: Neu5Ac(a2-3)Gal(b1-4)GlcNAc6S
How it was run: as §1

[35] = target: Neu5Ac(a2-3)Gal(b1-4)[Fuc(a1-3)]GlcNAc
How it was run: as §1

[36] = target: Neu5Ac(a2-3)Gal(b1-4)[Fuc(a1-3)]GlcNAc(b1-2)Man
How it was run: as §1

[37] = target: Neu5Ac(a2-3)Gal(b1-4)[Fuc(a1-3)]GlcNAc(b1-3)Gal
How it was run: as §1

[38] = target: Neu5Ac(a2-3)Gal(b1-4)[Fuc(a1-3)]GlcNAc(b1-3)Gal(b1-4)GlcNAc
How it was run: as §1

[39] = target: Neu5Ac(a2-3)Gal(b1-4)[Fuc(a1-3)]GlcNAc(b1-3)Gal(b1-4)[Fuc(a1-3)]GlcNAc(b1-3)Gal(b1-4)[Fuc(a1-3)]GlcNAc
How it was run: as §1

[40] = target: Neu5Ac(a2-3)Gal(b1-4)[Fuc(a1-3)]GlcNAc(b1-3)GalNAc
How it was run: as §1

[41] = target: Neu5Ac(a2-3)Gal(b1-4)[Fuc(a1-3)]GlcNAc(b1-6)[Gal(b1-3)]GalNAc
How it was run: as §1

[42] = target: Neu5Ac(a2-3)Gal(b1-4)[Fuc(a1-3)]GlcNAc(b1-6)[Neu5Ac(a2-3)Gal(b1-3)]GalNAc
How it was run: as §1

[43] = target: Neu5Ac(a2-3)Gal(b1-4)[Fuc(a1-3)]GlcNAc6S
How it was run: as §1

[44] = target: Neu5Ac(a2-3)Gal6S(b1-4)GlcNAc
How it was run: as §1

[45] = target: Neu5Ac(a2-3)Gal6S(b1-4)[Fuc(a1-3)]GlcNAc
How it was run: as §1

B1: SynCAM (Mus musculus) (protein)
chain: MASAVLPSGSQCAAAAAVAAAAAPPGLRLRLLLLLLSAAALIPTGDGQNLFTKDVTVIEGEVATISCQVNKSDDSVIQLLNPNRQTIYFRDFRPLKDSRFQLLNFSSSELKVSLTNVSISDEGRYFCQLYTDPPQESYTTITVLVPPRNLMIDIQKDTAVEGEEIEVNCTAMASKPATTIRWFKGNKELKGKSEVEEWSDMYTVTSQLMLKVHKEDDGVPVICQVEHPAVTGNLQTQRYLEVQYKPQVHIQMTYPLQGLTREGDAFELTCEAIGKPQPVMVTWVRVDDEMPQHAVLSGPNLFINNLNKTDNGTYRCEASNIVGKAHSDYMLYVYDPPTTIPPP
[1]
  glycan array binding signal (z-score): 0.283
[2]
  glycan array binding signal (z-score): 0.64
[3]
  glycan array binding signal (z-score): 0.587
[4]
  glycan array binding signal (z-score): 0.48
[5]
  glycan array binding signal (z-score): -0.215
[6]
  glycan array binding signal (z-score): -0.498
[7]
  glycan array binding signal (z-score): -0.395
[8]
  glycan array binding signal (z-score): 0.141
[9]
  glycan array binding signal (z-score): 0.426
[10]
  glycan array binding signal (z-score): -0.036
[11]
  glycan array binding signal (z-score): -1.56
[12]
  glycan array binding signal (z-score): -0.835
[13]
  glycan array binding signal (z-score): 0.033
[14]
  glycan array binding signal (z-score): -0.54
[15]
  glycan array binding signal (z-score): 0.594
[16]
  glycan array binding signal (z-score): -0.33
[17]
  glycan array binding signal (z-score): 1.17
[18]
  glycan array binding signal (z-score): 0.14
[19]
  glycan array binding signal (z-score): -0.085
[20]
  glycan array binding signal (z-score): -0.53
[21]
  glycan array binding signal (z-score): 0.31
[22]
  glycan array binding signal (z-score): 1.26
[23]
  glycan array binding signal (z-score): -0.733
[24]
  glycan array binding signal (z-score): 1.17
[25]
  glycan array binding signal (z-score): -0.739
[26]
  glycan array binding signal (z-score): -0.09
[27]
  glycan array binding signal (z-score): -0.784
[28]
  glycan array binding signal (z-score): 1.16
[29]
  glycan array binding signal (z-score): 0.12
[30]
  glycan array binding signal (z-score): -0.987
[31]
  glycan array binding signal (z-score): 0.475
[32]
  glycan array binding signal (z-score): -0.051
[33]
  glycan array binding signal (z-score): -1.12
[34]
  glycan array binding signal (z-score): -0.022
[35]
  glycan array binding signal (z-score): -0.809
[36]
  glycan array binding signal (z-score): 3.11
[37]
  glycan array binding signal (z-score): -1.35
[38]
  glycan array binding signal (z-score): 0.475
[39]
  glycan array binding signal (z-score): 0.234
[40]
  glycan array binding signal (z-score): 0.588
[41]
  glycan array binding signal (z-score): -0.494
[42]
  glycan array binding signal (z-score): 0.098
[43]
  glycan array binding signal (z-score): -0.066
[44]
  glycan array binding signal (z-score): 1.57
[45]
  glycan array binding signal (z-score): 0.194
